Assay results as given in PubChem BioAssay (EPA / NIEHS).
Values joined by “and” are separate entries in the source; they are usually repeats but may differ in a detail not shown here. Identical values can stand only once. Inconclusive results, whose numbers are uncertain, are shown with a selection of clear calls. Potencies of inconclusive entries are doubtful fits and often do not repeat. Where a structure was tested more than once in an assay, its records may differ in their call. Active and inactive are the calls of the source. How the source made its calls: active means hit-call score of the fitted dose curve at least 0.9, where 1 is the maximum; inconclusive means response in the unintended direction; inactive means score below 0.9.

Chains of the proteins cited; added tags and fusions are not shown.
UniProt P04637, whole entry, looked up: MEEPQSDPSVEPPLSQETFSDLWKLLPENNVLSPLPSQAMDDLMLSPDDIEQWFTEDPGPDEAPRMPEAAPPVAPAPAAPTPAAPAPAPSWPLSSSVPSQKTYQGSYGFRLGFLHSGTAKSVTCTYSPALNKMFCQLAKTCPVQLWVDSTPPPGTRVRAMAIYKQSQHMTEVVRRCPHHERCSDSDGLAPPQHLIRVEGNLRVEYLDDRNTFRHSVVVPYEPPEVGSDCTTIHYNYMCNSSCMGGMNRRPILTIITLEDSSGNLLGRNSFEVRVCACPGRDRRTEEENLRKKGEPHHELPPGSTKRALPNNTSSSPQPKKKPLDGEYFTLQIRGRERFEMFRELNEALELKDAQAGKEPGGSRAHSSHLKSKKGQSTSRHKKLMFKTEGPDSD

Each molecule was assayed against Cellular tumor antigen p53 (Homo sapiens) (UniProt P04637) (assay: TOX21_p53_BLA_p5_ratio: Tox21 HCT-116 p53 Agonism Beta-lactamase Assay, Ratio, Phase 5 (AID 2283599)).
Description: TOX21_p53_BLA_p5 is a cell-based, single-readout assay that uses HCT116, a human intestinal cell line, […] in a 1536-well plate.TOX21_p53_BLA_p5_ratio is an assay readout measuring reporter gene via receptor activity and designed using inducible reporter (beta lactamase induction) detected with GAL4 b-lactamase reporter gene. The signal is derived from the ratio of cleaved (ch2) to uncleaved (ch1) reporter gene substrate used as the measure of target activity.Data from the assay component TOX21_p53_BLA_p5_ratio was analyzed into 1 assay endpoint. This assay endpoint, TOX21_p53_BLA_p5_ratio, was analyzed in the positive analysis fitting direction relative to DMSO as the negative control and baseline of activity. Using a type of inducible reporter, gain-of-signal activity can be used to understand changes in the reporter gene as they relate to the gene TP53. Furthermore, this assay endpoint can be referred to as a primary readout, because this assay has produced multiple assay endpoints and this ratio serves a reporter gene function to understand target activity. To generalize the intended target to other relatable targets, this assay endpoint is annotated to the DNA binding intended target family, where the subfamily is tumor suppressor.
Thawing Method: Place 14 mL of pre-warmed thaw medium into a 15 mL of conical tub. Remove the vial of cells to be thawed from liquid nitrogen and thaw rapidly by placing at 37C in a water bath with gentle agitation for 1-2 minutes. Decontaminate the vial by wiping with 70% ethanol before opening in a biological safety cabinet. Transfer the vial contents drop-wise into 14 mL of thaw medium in a sterile 15-mL conical tub. Centrifuge cells at 900 rpm for 4 minutes and resuspend in thaw medium. Transfer contents to the T75 tissue culture flask containing Thaw Medium and place flask in a humidified 37C/5% CO2 incubator. Switch to growth medium at first passage.Propagation Method: Aspirate medium, rinse once in DPBS, add 0.25% Trypsin/EDTA and swirl to coat the cell evenly. Add an equal volume of Growth Medium to inactivate Trypsin after 2-3 minutes incubation at 37C. Centrifuge cells at 900 rpm for 4 minutes and resuspend in growth medium. Cell should be passage or fed at least twice a week.Assay Protocol: Harvest cells from culture in growth medium and resuspend in assay medium. 2.2 Dispense 4000 cells/5 uL/well into 1536-well black/clear bottom plates using a Multidrop dispenser. After the cells were incubated at 37C for 5 hours, 23 nL of compounds dissolved in DMSO were transferred to the assay plate by a PinTool resulting in a 217-fold dilution. Incubate the plates for 16 hours at 37C, 5% CO2. Add 1 uL of 6X LiveBLAzer FRET B/G (CCF4-AM) Substrate Mixture to each well using a BioRAPTR dispenser and incubate the plates at room temperature for 2 hours. Measure fluorescence intensity at 460 and 530 nm emission and 405 nm excitation by an Envision detector. Data is expressed as the ratio of 460nm/530nm emissions. Add 4 uL of Cell-titer Glo to each well using BioRAPTR and incubate the plates at room temperature for 2 hours. Measure fluorescence intensity by a VewLux plate reader.

| SMILES | AC50 | outcome |
| --- | --- | --- |
| O=C(Nc1ccccc1)c1cc(Cl)ccc1O | active: 13.7 µM |  |
| C[N+](C)(C)CC(O)CCl (stereo unspecified) | inconclusive: 46.5 µM |  |
| CC(=O)Nc1cccc(C)c1 | inconclusive: 46.2 µM |  |
| COc1cc(Cl)ccc1Cl | inconclusive: 46.9 µM |  |
| C#C[C@]1(OC(C)=O)CC[C@H]2[C@@H]3CCC4=C[C@@H](OC(C)=O)CC[C@@H]4[C@H]3CC[C@@]21C | active: 43 µM | inactive |
| Clc1ccc2n[nH]nc2c1 | active: 55.7 µM |  |
| CCCCCCCCCCCCCC(=O)OC(C)C | inconclusive: 45.6 µM and inconclusive: 23 µM |  |
| CNC(=O)Nc1ccc(Cl)c(Cl)c1 |  | inactive |
| CCCCCC=CCC(=O)OC | inconclusive: 84.3 µM |  |
| O=S(=O)(O)c1ccc(Cl)cc1 | inconclusive: 86.9 µM |  |
| CCCCc1cc2ccccc2c(OCCN(C)C)n1 | inconclusive: 10.3 µM |  |
| O=C(O)c1cc(N=Nc2ccc(S(=O)(=O)Nc3ccccn3)cc2)ccc1O | inconclusive: 41.2 µM | inactive |
| OCC1(CO)COCOC1 |  | inactive |
| CCCCCCCCCCCCN(CCO)CCO | active: 75.6 µM |  |
| CCCCC(O)c1ccccc1 (stereo unspecified) | inconclusive: 23 µM |  |
| O=[N+]([O-])c1cccc(C(F)(F)F)c1 | inconclusive: 46.3 µM |  |
| CCc1cc(SCc2sc(-c3ccc(C(F)(F)F)cc3)nc2CN2CCN(c3ccc(OC)cc3)CC2)ccc1OCC(=O)O | active: 67 µM |  |
| CC1(C)S[C@@H]2[C@H](NC(=O)[C@H](N)c3ccccc3)C(=O)N2[C@H]1C(=O)O | inconclusive: 36.4 µM | inactive |

| SMILES | AC50 | outcome |
| --- | --- | --- |
| O=C1OC(=O)C2C3C=CC(C3)C12 (stereo unspecified) |  | inactive |
| CCCC(CC)CCCCCCCN (stereo unspecified) | inconclusive: 47 µM |  |
| CCC1(C)NC(=O)NC1=O (stereo unspecified) | inconclusive: 77.4 µM |  |
| O=[N+]([O-])c1ccc(Oc2ccc(N=C=S)cc2)cc1 | active: 10.8 µM |  |
| CN1C(=O)C[C@@H](C(=O)N[C@@H](Cc2cnc[nH]2)C(=O)N2CCC[C@H]2C(N)=O)NC1=O |  | inactive |
| CC=C1[C@H]2C=C(C)C[C@]1(N)c1ccc(=O)[nH]c1C2 |  | inactive |
| COc1ccc(NC(C)=O)cc1 | inconclusive: 47.1 µM |  |
| CC(C)(C)NSc1nc2ccccc2s1 | inconclusive: 46.7 µM |  |
| O=[N+]([O-])c1cc(C(F)(F)F)ccc1Cl | inconclusive: 46.1 µM and inconclusive: 46.9 µM |  |
| CC(=O)Nc1ccc(C(=O)CCl)cc1 | active: 20.9 µM |  |
| CCOC(=O)C(C)O (stereo unspecified) | inconclusive: 47.3 µM |  |
| N[C@@H](Cc1cnc[nH]1)C(=O)O | inconclusive: 23 µM |  |
| C[C@H](CS)C(=O)N1CCC[C@H]1C(=O)O | inconclusive: 23 µM |  |
| O=C(c1ccccc1O)c1ccccc1O | inconclusive: 8.49e-05 µM |  |
| COC(C)OC | inconclusive: 86.7 µM |  |
| CCCCOC(=O)c1ccccc1C(=O)OCC(CC)CCCC (stereo unspecified) | inconclusive: 46.1 µM |  |
| Cc1cc(Cc2ccc(N)c(C)c2)ccc1N | inconclusive: 8.39 µM | inactive |
